Patent EP4692126A1
No constants are given. Whether binding was seen depends on the method and setting. Some results given as binding are weak or reduced against the parent protein; the word gives no strength.

By UniProt entry, the sequences of proteins in these tests, tags left out. Residues count along the entry.
UniProt Q13641, residues 32-355: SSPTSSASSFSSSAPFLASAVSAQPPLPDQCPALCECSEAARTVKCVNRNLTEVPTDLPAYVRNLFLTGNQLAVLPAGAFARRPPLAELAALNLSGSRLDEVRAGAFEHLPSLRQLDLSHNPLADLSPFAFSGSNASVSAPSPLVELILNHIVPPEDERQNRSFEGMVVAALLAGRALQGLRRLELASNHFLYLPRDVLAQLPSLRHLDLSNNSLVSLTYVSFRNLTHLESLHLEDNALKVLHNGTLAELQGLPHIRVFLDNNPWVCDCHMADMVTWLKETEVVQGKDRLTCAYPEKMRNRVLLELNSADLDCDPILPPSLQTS

B1: hB5-2-1 (antibody, human IgG1, kappa, V domains shown)
VH: EVQLVESGGGLVQPGGSLRLSCAASGFTFRNYAMSWVRQAPGKGLEWVAEISTGGSYTYYPDTVTGRFTISRDNAKNSLYLQMNSLRAEDTAVYYCAFYYYGSSYSMDYWGQGTLVTVSS
VL: DIQMTQSPSSLSASVGDRVTISCRASQDISNYLNWYQQKPGKAPKLLIYHTSILHSGVPSRFSGSGSGTDYSLTISSLQPEDIATYFCQQGDTVPLTFGGGTKVEIKR
B2: hB5-2-2 (antibody, human IgG1, kappa, V domains shown)
VH: EVQLVESGGGLVQPGGSLRLSCAASGFTFRNYAMSWVRQAPGKGLEWVAEISTGGSYTYYPDTVTGRFTISRDNAKNSLYLQMNSLRAEDTAVYYCAFYYYGSSYSMDYWGQGTLVTVSS
VL: DIQMTQSPSSLSASVGDRVTISCRASQDISNYLNWYQQKPGKVPKLLIYHTSILHSGVPSRFSGSGSGTDYSLTISSLQPEDVATYFCQQGDTVPLTFGGGTKVEIKR
B3: hB5-2-3 (antibody, human IgG1, kappa, V domains shown)
VH: EVQLVESGGGLVQPGGSLRLSCAASGFTFRNYAMSWVRQAPGKGLEWVAEISTGGSYTYYPDTVTGRFTISRDNAKNSLYLQMNSLRAEDTAVYYCAFYYYGSSYSMDYWGQGTLVTVSS
VL: DIQMTQTTSSLSASVGDRVTISCRASQDISNYLNWFQQKPGKAPKSLIYHTSILHSGVPSKFSGSGSGTDYSLTISSLQPEDFATYFCQQGDTVPLTFGGGTKVEIKR
B4: hB5-2-4 (antibody, human IgG1, kappa, V domains shown)
VH: EVQLVESGGGLVQPGGSLRLSCAASGFTFRNYAMSWVRQAPGKGLEWVAEISTGGSYTYYPDTVTGRFTISRDNAKNSLYLQMNSLRAEDTAVYYCAFYYYGSSYSMDYWGQGTLVTVSS
VL: DIQMTQSPSSLSASVGDRVTISCRASQDISNYLNWYQQKPGKAPKLLIYHTSILHSGVPSRFSGSGSGTDYSLTISSLQPEDFATYFCQQGDTVPLTFGGGTKVEIKR
B5: hB5-2-5 (antibody, human IgG1, kappa, V domains shown)
VH: EVQLVESGGGLVQPGGSLRLSCAASGFTFRNYAMSWVRQAPGKGLEWVAEISTGGSYTYYPDTVTGRFTISRDNSKNTLYLQMNSLRAEDTAVYYCAFYYYGSSYSMDYWGQGTLVTVSS
VL: DIQMTQSPSSLSASVGDRVTISCRASQDISNYLNWYQQKPGKAPKLLIYHTSILHSGVPSRFSGSGSGTDYSLTISSLQPEDIATYFCQQGDTVPLTFGGGTKVEIKR
B6: hB5-2-6 (antibody, human IgG1, kappa, V domains shown)
VH: EVQLVESGGGLVQPGGSLRLSCAASGFTFRNYAMSWVRQAPGKGLEWVAEISTGGSYTYYPDTVTGRFTISRDNSKNTLYLQMNSLRAEDTAVYYCAFYYYGSSYSMDYWGQGTLVTVSS
VL: DIQMTQSPSSLSASVGDRVTISCRASQDISNYLNWYQQKPGKVPKLLIYHTSILHSGVPSRFSGSGSGTDYSLTISSLQPEDVATYFCQQGDTVPLTFGGGTKVEIKR
B7: hB5-2-7 (antibody, human IgG1, kappa, V domains shown)
VH: EVQLVESGGGLVQPGGSLRLSCAASGFTFRNYAMSWVRQAPGKGLEWVAEISTGGSYTYYPDTVTGRFTISRDNSKNTLYLQMNSLRAEDTAVYYCAFYYYGSSYSMDYWGQGTLVTVSS
VL: DIQMTQTTSSLSASVGDRVTISCRASQDISNYLNWFQQKPGKAPKSLIYHTSILHSGVPSKFSGSGSGTDYSLTISSLQPEDFATYFCQQGDTVPLTFGGGTKVEIKR
B8: hB5-2-8 (antibody, human IgG1, kappa, V domains shown)
VH: EVQLVESGGGLVQPGGSLRLSCAASGFTFRNYAMSWVRQAPGKGLEWVAEISTGGSYTYYPDTVTGRFTISRDNSKNTLYLQMNSLRAEDTAVYYCAFYYYGSSYSMDYWGQGTLVTVSS
VL: DIQMTQSPSSLSASVGDRVTISCRASQDISNYLNWYQQKPGKAPKLLIYHTSILHSGVPSRFSGSGSGTDYSLTISSLQPEDFATYFCQQGDTVPLTFGGGTKVEIKR
B9: hB5-2-13 (antibody, human IgG1, kappa, V domains shown)
VH: EVQLVESGGGVVQPGRSLRLSCAASGFTFRNYAMSWVRQAPGKGLEWVAEISTGGSYTYYPDTVTGRFTISRDNSKNTLYLQMSSLRAEDTAVYYCAFYYYGSSYSMDYWGQGTLVTVSS
VL: DIQMTQSPSSLSASVGDRVTISCRASQDISNYLNWYQQKPGKAPKLLIYHTSILHSGVPSRFSGSGSGTDYSLTISSLQPEDIATYFCQQGDTVPLTFGGGTKVEIKR
B10: hB5-2-14 (antibody, human IgG1, kappa, V domains shown)
VH: EVQLVESGGGVVQPGRSLRLSCAASGFTFRNYAMSWVRQAPGKGLEWVAEISTGGSYTYYPDTVTGRFTISRDNSKNTLYLQMSSLRAEDTAVYYCAFYYYGSSYSMDYWGQGTLVTVSS
VL: DIQMTQSPSSLSASVGDRVTISCRASQDISNYLNWYQQKPGKVPKLLIYHTSILHSGVPSRFSGSGSGTDYSLTISSLQPEDVATYFCQQGDTVPLTFGGGTKVEIKR
B11: hB5-2-15 (antibody, human IgG1, kappa, V domains shown)
VH: EVQLVESGGGVVQPGRSLRLSCAASGFTFRNYAMSWVRQAPGKGLEWVAEISTGGSYTYYPDTVTGRFTISRDNSKNTLYLQMSSLRAEDTAVYYCAFYYYGSSYSMDYWGQGTLVTVSS
VL: DIQMTQTTSSLSASVGDRVTISCRASQDISNYLNWFQQKPGKAPKSLIYHTSILHSGVPSKFSGSGSGTDYSLTISSLQPEDFATYFCQQGDTVPLTFGGGTKVEIKR
B12: hB5-2-16 (antibody, human IgG1, kappa, V domains shown)
VH: EVQLVESGGGVVQPGRSLRLSCAASGFTFRNYAMSWVRQAPGKGLEWVAEISTGGSYTYYPDTVTGRFTISRDNSKNTLYLQMSSLRAEDTAVYYCAFYYYGSSYSMDYWGQGTLVTVSS
VL: DIQMTQSPSSLSASVGDRVTISCRASQDISNYLNWYQQKPGKAPKLLIYHTSILHSGVPSRFSGSGSGTDYSLTISSLQPEDFATYFCQQGDTVPLTFGGGTKVEIKR

Molecular target: TPBG-His (UniProt Q13641)
Assay: SPR (Biacore 8K), single concentration

binding, binds:
B1
B2
B3
B4
B5
B6
B7
B8
B9
B10
B11
B12
